According to the supplement of paper PMC10849652:
The other results are listed elsewhere or left out.

Sequences of proteins named here, by UniProt entry; tags and fusion partners are left off. A change or cut given only in a name is not applied to a line headed by its entry.
UniProt O15397, whole entry, looked up: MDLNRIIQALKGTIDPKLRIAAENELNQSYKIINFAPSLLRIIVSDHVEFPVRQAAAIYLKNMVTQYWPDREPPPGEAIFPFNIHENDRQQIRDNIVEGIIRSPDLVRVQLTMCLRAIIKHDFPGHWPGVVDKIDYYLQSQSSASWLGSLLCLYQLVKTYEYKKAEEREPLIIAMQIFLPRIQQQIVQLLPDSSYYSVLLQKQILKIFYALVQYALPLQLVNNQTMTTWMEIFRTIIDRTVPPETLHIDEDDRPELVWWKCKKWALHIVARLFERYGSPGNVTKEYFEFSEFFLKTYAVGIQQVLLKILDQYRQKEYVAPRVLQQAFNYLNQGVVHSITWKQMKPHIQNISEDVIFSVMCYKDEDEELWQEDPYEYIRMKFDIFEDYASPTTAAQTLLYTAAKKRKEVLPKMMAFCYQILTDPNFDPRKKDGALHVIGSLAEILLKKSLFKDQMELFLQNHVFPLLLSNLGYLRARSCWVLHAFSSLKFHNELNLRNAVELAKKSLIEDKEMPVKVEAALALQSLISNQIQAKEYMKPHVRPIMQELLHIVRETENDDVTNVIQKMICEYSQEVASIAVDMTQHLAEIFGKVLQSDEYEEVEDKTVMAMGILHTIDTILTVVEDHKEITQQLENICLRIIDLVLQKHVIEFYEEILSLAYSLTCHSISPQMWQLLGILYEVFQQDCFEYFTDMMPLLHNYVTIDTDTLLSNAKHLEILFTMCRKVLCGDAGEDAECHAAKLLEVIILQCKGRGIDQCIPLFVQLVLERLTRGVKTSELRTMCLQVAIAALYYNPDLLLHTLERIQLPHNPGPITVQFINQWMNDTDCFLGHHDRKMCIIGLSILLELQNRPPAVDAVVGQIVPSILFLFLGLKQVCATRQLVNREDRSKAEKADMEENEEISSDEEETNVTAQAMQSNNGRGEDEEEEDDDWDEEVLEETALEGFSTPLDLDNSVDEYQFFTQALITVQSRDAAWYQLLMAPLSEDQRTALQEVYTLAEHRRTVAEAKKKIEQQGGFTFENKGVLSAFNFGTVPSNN
UniProt Q8IU81: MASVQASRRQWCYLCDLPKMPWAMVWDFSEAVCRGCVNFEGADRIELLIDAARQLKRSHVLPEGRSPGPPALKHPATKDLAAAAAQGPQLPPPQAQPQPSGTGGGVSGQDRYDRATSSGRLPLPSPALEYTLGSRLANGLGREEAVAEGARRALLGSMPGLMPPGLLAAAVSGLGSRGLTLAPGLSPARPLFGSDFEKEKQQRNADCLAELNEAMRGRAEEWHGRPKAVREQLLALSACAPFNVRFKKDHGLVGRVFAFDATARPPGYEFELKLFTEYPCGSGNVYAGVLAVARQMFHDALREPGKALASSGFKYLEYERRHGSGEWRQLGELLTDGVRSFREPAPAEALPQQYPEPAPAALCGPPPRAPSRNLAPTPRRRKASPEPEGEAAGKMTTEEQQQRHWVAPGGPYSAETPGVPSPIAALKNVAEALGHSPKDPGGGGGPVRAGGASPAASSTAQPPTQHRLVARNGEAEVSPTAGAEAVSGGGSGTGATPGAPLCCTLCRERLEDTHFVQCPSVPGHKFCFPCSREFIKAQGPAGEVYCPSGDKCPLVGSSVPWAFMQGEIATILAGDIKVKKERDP
UniProt Q9NQX7: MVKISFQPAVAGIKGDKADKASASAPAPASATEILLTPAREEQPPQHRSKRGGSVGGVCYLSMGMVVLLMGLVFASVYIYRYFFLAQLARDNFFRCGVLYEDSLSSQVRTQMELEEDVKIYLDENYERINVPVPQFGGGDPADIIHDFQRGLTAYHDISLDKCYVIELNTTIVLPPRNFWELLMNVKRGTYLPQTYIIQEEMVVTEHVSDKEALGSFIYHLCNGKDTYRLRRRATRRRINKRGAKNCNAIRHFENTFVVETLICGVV
UniProt Q27J81, whole entry, looked up: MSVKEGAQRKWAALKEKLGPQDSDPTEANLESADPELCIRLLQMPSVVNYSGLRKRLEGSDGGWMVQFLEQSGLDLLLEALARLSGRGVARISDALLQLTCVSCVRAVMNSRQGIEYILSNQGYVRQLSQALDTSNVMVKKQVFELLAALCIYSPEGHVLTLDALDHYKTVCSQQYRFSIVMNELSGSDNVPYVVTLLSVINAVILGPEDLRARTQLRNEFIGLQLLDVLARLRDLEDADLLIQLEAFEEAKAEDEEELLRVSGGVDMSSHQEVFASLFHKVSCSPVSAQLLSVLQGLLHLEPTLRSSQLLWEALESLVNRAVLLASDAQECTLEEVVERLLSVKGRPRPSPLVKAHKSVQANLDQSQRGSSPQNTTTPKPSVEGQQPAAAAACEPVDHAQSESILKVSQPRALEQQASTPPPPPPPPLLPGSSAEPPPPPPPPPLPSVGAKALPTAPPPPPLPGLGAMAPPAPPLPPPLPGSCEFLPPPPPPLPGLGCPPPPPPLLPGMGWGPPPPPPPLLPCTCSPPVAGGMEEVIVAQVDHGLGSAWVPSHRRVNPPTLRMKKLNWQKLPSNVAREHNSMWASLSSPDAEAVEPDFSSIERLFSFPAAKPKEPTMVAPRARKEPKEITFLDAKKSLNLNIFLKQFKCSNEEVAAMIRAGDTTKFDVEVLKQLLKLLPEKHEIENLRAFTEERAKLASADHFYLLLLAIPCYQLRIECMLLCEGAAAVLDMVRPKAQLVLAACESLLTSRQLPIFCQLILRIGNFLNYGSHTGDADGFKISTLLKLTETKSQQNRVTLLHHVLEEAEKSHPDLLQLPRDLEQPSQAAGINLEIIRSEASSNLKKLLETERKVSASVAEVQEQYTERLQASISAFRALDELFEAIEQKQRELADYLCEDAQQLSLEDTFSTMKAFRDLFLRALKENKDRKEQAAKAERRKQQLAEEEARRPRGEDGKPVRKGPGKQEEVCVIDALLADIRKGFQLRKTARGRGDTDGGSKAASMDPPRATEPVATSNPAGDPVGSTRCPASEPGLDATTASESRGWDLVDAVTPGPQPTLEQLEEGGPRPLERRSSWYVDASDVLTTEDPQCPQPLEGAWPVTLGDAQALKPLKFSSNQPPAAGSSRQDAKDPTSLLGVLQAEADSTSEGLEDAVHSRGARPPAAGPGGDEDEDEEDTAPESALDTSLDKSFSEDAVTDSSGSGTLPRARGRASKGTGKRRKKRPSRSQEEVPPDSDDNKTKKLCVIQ
UniProt Q08334: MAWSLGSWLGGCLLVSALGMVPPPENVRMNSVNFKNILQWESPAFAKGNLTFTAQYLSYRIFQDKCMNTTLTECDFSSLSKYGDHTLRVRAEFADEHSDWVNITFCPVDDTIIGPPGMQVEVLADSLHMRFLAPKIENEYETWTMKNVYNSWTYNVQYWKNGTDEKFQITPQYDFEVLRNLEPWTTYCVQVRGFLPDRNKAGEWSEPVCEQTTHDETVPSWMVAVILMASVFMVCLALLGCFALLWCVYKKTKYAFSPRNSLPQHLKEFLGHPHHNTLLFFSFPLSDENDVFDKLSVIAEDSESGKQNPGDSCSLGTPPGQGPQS
UniProt Q9BUE6: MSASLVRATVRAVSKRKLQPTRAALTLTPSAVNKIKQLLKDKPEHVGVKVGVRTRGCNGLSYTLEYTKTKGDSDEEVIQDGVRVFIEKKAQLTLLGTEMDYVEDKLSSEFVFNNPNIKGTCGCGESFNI
UniProt P0DMQ5: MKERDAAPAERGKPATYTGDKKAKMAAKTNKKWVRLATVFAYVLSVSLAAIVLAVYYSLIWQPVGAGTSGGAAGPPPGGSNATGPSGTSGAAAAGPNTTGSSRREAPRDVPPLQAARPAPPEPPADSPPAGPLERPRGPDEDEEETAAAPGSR
UniProt Q13422: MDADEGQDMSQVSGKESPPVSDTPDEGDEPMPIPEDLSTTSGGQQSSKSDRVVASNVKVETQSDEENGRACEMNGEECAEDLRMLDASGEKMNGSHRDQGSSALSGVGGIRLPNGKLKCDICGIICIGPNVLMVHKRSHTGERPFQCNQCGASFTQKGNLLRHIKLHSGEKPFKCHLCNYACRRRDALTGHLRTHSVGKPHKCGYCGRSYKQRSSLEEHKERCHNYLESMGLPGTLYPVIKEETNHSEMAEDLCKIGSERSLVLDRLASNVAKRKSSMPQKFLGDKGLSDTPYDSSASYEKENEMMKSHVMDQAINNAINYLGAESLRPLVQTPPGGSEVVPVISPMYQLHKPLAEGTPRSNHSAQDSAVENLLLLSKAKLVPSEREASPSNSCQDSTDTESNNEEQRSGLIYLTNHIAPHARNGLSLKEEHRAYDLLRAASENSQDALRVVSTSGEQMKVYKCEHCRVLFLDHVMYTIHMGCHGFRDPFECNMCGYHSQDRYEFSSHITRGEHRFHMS
UniProt Q9H2S9: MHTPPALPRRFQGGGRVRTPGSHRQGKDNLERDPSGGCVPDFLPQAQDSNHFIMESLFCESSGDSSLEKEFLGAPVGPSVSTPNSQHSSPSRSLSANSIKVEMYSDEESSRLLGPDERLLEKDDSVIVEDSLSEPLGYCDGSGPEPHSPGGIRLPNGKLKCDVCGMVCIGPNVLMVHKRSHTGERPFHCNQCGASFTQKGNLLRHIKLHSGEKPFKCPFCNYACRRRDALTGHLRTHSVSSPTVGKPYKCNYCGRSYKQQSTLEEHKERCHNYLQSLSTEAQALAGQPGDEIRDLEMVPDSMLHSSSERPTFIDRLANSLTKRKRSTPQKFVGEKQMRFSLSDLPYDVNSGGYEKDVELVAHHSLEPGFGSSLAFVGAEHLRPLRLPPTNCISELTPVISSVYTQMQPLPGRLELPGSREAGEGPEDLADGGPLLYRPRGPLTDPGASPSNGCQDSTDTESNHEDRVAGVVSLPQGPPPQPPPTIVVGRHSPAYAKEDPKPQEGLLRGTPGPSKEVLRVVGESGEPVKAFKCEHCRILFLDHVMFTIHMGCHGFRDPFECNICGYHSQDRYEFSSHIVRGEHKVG
UniProt Q75QN2, whole entry, looked up: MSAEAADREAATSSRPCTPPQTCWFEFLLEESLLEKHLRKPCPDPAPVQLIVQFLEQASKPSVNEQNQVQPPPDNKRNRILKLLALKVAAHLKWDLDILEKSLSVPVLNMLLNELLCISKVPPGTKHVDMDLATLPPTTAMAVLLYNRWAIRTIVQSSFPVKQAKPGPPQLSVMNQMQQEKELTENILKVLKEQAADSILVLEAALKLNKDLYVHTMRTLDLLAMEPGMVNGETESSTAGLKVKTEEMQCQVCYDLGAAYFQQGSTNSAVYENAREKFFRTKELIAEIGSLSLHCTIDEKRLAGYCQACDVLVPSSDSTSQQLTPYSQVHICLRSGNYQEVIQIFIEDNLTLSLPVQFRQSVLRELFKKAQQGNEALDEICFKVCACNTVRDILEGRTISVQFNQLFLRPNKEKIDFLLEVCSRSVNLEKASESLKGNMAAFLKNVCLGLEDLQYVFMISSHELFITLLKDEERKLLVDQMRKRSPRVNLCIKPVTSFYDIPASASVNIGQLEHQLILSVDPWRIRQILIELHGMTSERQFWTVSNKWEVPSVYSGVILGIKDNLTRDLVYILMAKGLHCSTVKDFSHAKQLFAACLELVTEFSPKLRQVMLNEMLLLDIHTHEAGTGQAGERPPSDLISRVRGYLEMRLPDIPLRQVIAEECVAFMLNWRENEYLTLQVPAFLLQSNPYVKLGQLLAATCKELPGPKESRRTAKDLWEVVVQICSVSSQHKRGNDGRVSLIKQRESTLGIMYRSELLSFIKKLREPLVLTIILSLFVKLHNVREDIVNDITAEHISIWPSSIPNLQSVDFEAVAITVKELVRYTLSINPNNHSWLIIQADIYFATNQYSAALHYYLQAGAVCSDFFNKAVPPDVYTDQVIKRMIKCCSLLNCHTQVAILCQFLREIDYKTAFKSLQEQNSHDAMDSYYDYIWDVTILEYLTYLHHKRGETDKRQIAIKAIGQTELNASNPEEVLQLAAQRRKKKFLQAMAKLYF
UniProt Q8IWB1: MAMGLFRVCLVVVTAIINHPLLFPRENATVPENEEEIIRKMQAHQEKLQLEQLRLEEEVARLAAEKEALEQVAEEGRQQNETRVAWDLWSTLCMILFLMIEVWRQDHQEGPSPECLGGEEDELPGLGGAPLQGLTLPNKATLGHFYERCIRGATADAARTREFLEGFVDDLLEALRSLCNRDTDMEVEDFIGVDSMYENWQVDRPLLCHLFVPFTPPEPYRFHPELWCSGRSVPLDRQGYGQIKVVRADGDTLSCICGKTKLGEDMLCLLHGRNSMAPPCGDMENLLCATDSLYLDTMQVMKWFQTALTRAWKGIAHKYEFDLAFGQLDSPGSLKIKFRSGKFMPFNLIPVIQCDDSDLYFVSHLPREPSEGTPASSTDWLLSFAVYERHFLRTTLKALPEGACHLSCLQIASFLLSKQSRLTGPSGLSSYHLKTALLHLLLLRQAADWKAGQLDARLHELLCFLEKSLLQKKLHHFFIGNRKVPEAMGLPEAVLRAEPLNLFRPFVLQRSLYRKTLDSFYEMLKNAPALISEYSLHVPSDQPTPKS
UniProt Q96AB3: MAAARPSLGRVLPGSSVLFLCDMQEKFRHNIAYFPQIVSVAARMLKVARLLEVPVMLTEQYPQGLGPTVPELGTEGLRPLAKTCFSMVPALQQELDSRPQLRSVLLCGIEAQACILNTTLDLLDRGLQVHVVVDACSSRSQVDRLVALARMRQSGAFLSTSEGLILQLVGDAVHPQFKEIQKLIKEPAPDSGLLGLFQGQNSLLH

Compound: CCN(CCCOc1ccc2c(Nc3cc(CC(=O)Nc4cccc(F)c4)[nH]n3)ncnc2c1)CCOP(=O)(O)O [barasertib]
Assay: log2 fold change, soluble protein after heating vs DMSO (PISA); higher = thermal stabilisation; K562 cells, 10 uM, 30 min; active = over 0.2 and 3.5 SD of the protein, either way, in both replicates (recomputed)
Method in brief: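 K562 cells at 2×10^6 cells/mL were exposed to 10 μM compound for 30 min, then aliquots were heated for 3 min across 48°C-58°C, pooled, and extracted in PBS containing 0.5% NP-40 at 4°C. The supernatant after 21,000xg for 90 min was taken as soluble protein and measured by TMTpro 16plex LC-MS/MS with channel sums equalised. Thermal stability is reported relative to control samples, with values from duplicates. Fold changes are given on a log2 scale.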

log2 fold change, inactive:
IPO8 (UniProt O15397) 0.106
ILF3 (UniProt Q12906) -0.241
IL18R1 (UniProt Q13478) 0.136
IP6K1 (UniProt Q92551) 0.259
IMPA1 isoform 3 (UniProt P29218) -0.006
IGHA1 (UniProt P01876) 0.608
IRF2BP1 (UniProt Q8IU81) 0.102
IFNGR1 (UniProt P15260) 0.028
IFNAR1 (UniProt P17181) -0.185
ITM2C (UniProt Q9NQX7) 0.057
IRAK1 (UniProt P51617) 0.319
INF2 (UniProt Q27J81) 0.043
IL10RB (UniProt Q08334) 0.063
ISCA1 isoform 2 (UniProt Q9BUE6) 0.005
INAFM2 (UniProt P0DMQ5) -0.092
IGLL5 (UniProt B9A064) 0.137
IKZF1 isoform 2 (UniProt Q13422) -0.08
IMPA2 (UniProt O14732) 0.112
IKZF4 (UniProt Q9H2S9) -0.207
IRF2 (UniProt P14316) 0.106
INTS8 (UniProt Q75QN2) -0.034
ITPRIP (UniProt Q8IWB1) 0.023
ING1 (UniProt Q9UK53) 0.121
IGKC (UniProt P01834) 0.543
ISOC2 (UniProt Q96AB3) 0.043

An excerpt taken from the entries so far, as a working copy:
log2 fold change, inactive:
IKZF1 isoform 2 (UniProt Q13422) -0.08
IMPA2 (UniProt O14732) 0.112
